These are yes or no findings as the source states them, for the method shown. A result given as binding can be weak or reduced; the word gives no strength.
Biological target: PaAG (Platanus acerifolia AGAMOUS), protein encoded by PaAG-1 (Platanus acerifolia) (UniProt K9UTE4)
Test: two-hybrid; GAL4 system in yeast strain AH109; bait in pGBKT7 (GAL4 binding domain), prey in pGADT7-Rec (GAL4 activation domain); co-transformed cells tested on selective SD medium without leucine, tryptophan, histidine and adenine

“PaAP3 (the APETALA3 ortholog in P. acerifolia) (from UniProt A4UTT8)” was tested. Which binding did it give?
Its binding is “binds”.
